Source: PubChem BioAssay AID912 (NCATS, 2007).

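Uptake of anthrax lethal toxin into cultured cells, read by FRET (460/530 nm ratio) and reported from the 460 nm channel; the cell line is not named here. Each compound was tested as a concentration series from about 0.0005 to 40 µM. The number is the fitted AC50 of the 460 nm signal alone; lower values mean a more potent effect. A falling signal goes with compounds filed as inhibitors or cytotoxic, a rising one with activators or fluorescent compounds (inferred from the filed classes).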

Values are in µM. Common to all entries: measured here: 460 nm channel. This is a side read-out of the assay, for part of the compounds, not drawn at random. Potencies fitted to partial, single-point or poorly fitting curves are rough. The first word of each remark tells which way the curve ran; it can be opposite to the aim of the assay.

For O=C(CN(C(=O)CSc1nnc(COc2ccccc2)o1)c1ccc(F)cc1)NC1CCCC1 the result was AC50 25.12 µM (rising, single point).
For CC1=C(C(=O)OCCOC(C)C)C(c2cccnc2)C2=C(CCCC2=O)N1 (stereo not shown) the result was AC50 10 µM (rising, single point).
For CCN1C2=NCCCN2c2ccccc21 the result was AC50 1.259 µM (falling, partial curve).
For CCC/C=C(\CCC)C(NS(=O)(=O)c1ccccc1)c1ccc(C(F)(F)F)cc1 (stereo not shown) the result was AC50 3.981 µM (falling, full curve).
For OC(CN(c1ccccc1)c1ccccc1)Cn1cnc2ccccc21 (stereo not shown) the result was AC50 31.62 µM (falling, single point).
For Cc1cc(C)nc(SCC(=O)Nc2ccc(Br)cn2)n1 the result was AC50 0.003981 µM (falling, full curve, poor fit).
For COc1cc(C)c(C(N)=O)c(OC)n1 the result was AC50 5.012 µM (rising, single point).
For N#Cc1c(N)sc(=S)c2c1CCN(Cc1ccccc1)C2 the result was AC50 10 µM (falling, partial curve).
For CCCc1nc2ccccc2c(=O)n1-c1cccc(OC)c1 the result was AC50 1 µM (rising, full curve, poor fit).
For COc1ccccc1CNc1ccnc(-c2cccc(NS(C)(=O)=O)c2)n1 the result was AC50 31.62 µM (falling, single point).
For O=c1ccc2cc(O[C@@H]3O[C@@H](CO)[C@@H](O)[C@@H](O)[C@H]3O)c(O)cc2o1 the result was AC50 25.12 µM (rising, partial curve).
For Cc1ccc(N2CCN(S(=O)(=O)c3ccc(F)cc3)CC2)c(C)c1 the result was AC50 7.943 µM (falling, partial curve).
For O=C(Nc1cccc(F)c1)N1CC[C@@]2(CCCN(C(=O)c3cccc(F)c3)C2)C1 the result was AC50 5.012 µM (rising, single point).
For CCn1c(CCC(=O)Nc2nc3c(s2)CCCC3)nc2cc(S(=O)(=O)N(C)C)ccc21 the result was AC50 3.981 µM (rising, single point).
For COc1cccc(Oc2c(C)oc3c(CN4CCOCC4)c(O)ccc3c2=O)c1 the result was AC50 0.1995 µM (falling, partial curve).
For COc1cc(NC(=O)C2CCN(S(=O)(=O)c3cccc4nonc34)CC2)cc(OC)c1 the result was AC50 31.62 µM (rising, single point).
For CCNc1ncc2nc(-c3cc(F)cc(F)c3)c(=O)n(C[C@H]3CCCO3)c2n1 the result was AC50 2.512 µM (rising, full curve).
For COc1cc(C(=O)CSc2nncn2C)cc(OC)c1OC the result was AC50 5.012 µM (rising, single point).
For COC(=O)c1ccc(Cl)c(NC(=O)CN(c2ccc3c(c2)OCO3)S(C)(=O)=O)c1 the result was AC50 5.012 µM (rising, single point).
For c1ccc2c(c1)[I+]c1ccccc1-2 the result was AC50 25.12 µM (falling, partial curve).
For CCC/C=C(\CCC)C(NP(=O)(c1ccccc1)c1ccccc1)c1ccccc1 (stereo not shown) the result was AC50 31.62 µM (falling, single point).
For c1ccc2c(c1)N1CCN=C1N2CCN1CCCCC1 the result was AC50 31.62 µM (falling, single point).
For COc1ccc(N2CCN(C(=O)c3cc4c(-c5ccc(Cl)cc5)nn(C)c4s3)CC2)cc1 the result was AC50 2.512 µM (falling, full curve).

3 of the entries, repeated:

structure	AC50 (µM)	remark
CCn1c(CCC(=O)Nc2nc3c(s2)CCCC3)nc2cc(S(=O)(=O)N(C)C)ccc21	3.981	rising, single point
O=c1ccc2cc(O[C@@H]3O[C@@H](CO)[C@@H](O)[C@@H](O)[C@H]3O)c(O)cc2o1	25.12	rising, partial curve
COc1cc(C)c(C(N)=O)c(OC)n1	5.012	rising, single point